# For some of these results: Shown are results outside the selection of hits, which stands elsewhere. Records with an inconclusive call do not appear. The entries are a selection whose mix differs from that of the whole data set. The source made the active and inactive calls. The call rests on the fitted dose curve; in most records, active means well fitted inhibition curve with a large enough effect; inconclusive means small, poorly fitted or top-dose-only effect; inactive means flat fitted curve, though single readings scatter.
# How the values were obtained:
# Assay in all cases: qHTS profiling for inhibitors of Plasmodium falciparum proliferation (AID 504749); further: nearly all actives have a fitted effect of over 60% in size;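 on activity, negative = inhibition: 0% = DMSO vehicle and full inhibition = artemisinin control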
# CP247 = settings: P. falciparum in erythrocytes, SYBR Green DNA, 72 h
# Outline: (§1)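 Parasite proliferation within erythrocytes, 72 h exposure. Endpoint: SYBR Green I fluorescence after overnight lysis at room temperature. Controls: 0.29 uM artemisinin, DMSO.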
# CP250 = settings: P. falciparum in erythrocytes, SYBR Green DNA, 72 h
# Outline: as §1
# CP252 = settings: P. falciparum in erythrocytes, SYBR Green DNA, 72 h
# Outline: as §1
# CP256 = settings: P. falciparum in erythrocytes, SYBR Green DNA, 72 h
# Outline: as §1
# CP260 = settings: P. falciparum in erythrocytes, SYBR Green DNA, 72 h
# Outline: as §1
# CP262 = settings: P. falciparum in erythrocytes, SYBR Green DNA, 72 h; at 28.7 µM (top of the series)
# Outline: as §1
# CP265 = settings: P. falciparum in erythrocytes, SYBR Green DNA, 72 h
# Outline: as §1
# CP266 = settings: P. falciparum in erythrocytes, SYBR Green DNA, 72 h
# Outline: as §1
# CP268 = settings: P. falciparum in erythrocytes, SYBR Green DNA, 72 h
# Outline: as §1
# CP269 = settings: P. falciparum in erythrocytes, SYBR Green DNA, 72 h
# Outline: as §1
# CP286 = settings: P. falciparum in erythrocytes, SYBR Green DNA, 72 h
# Outline: as §1
# CP291 = settings: P. falciparum in erythrocytes, SYBR Green DNA, 72 h
# Outline: as §1
# CP297 = settings: P. falciparum in erythrocytes, SYBR Green DNA, 72 h
# Outline: as §1
# CP305 = settings: P. falciparum in erythrocytes, SYBR Green DNA, 72 h
# Outline: as §1
# CP315 = settings: P. falciparum in erythrocytes, SYBR Green DNA, 72 h
# Outline: as §1
# CP325 = settings: P. falciparum in erythrocytes, SYBR Green DNA, 72 h
# Outline: as §1
# CP329 = settings: P. falciparum in erythrocytes, SYBR Green DNA, 72 h
# Outline: as §1
# DFO2036 = settings: P. falciparum in erythrocytes, SYBR Green DNA, 72 h
# Outline: as §1
# DIV14 = settings: P. falciparum in erythrocytes, SYBR Green DNA, 72 h
# Outline: as §1
# DIV17 = settings: P. falciparum in erythrocytes, SYBR Green DNA, 72 h
# Outline: as §1
# DIV30 = settings: P. falciparum in erythrocytes, SYBR Green DNA, 72 h
# Outline: as §1
# Dd2 = settings: P. falciparum in erythrocytes, SYBR Green DNA, 72 h
# Outline: as §1
# ECU = settings: P. falciparum in erythrocytes, SYBR Green DNA, 72 h
# Outline: as §1
# FAB9 = settings: P. falciparum in erythrocytes, SYBR Green DNA, 72 h
# Outline: as §1
# GB4 = settings: P. falciparum in erythrocytes, SYBR Green DNA, 72 h
# Outline: as §1
# HB3 = settings: P. falciparum in erythrocytes, SYBR Green DNA, 72 h
# Outline: as §1
# ICS = settings: P. falciparum in erythrocytes, SYBR Green DNA, 72 h
# Outline: as §1
# JCK = settings: P. falciparum in erythrocytes, SYBR Green DNA, 72 h
# Outline: as §1
# N140 = settings: P. falciparum in erythrocytes, SYBR Green DNA, 72 h
# Outline: as §1
# P93_24 = settings: P. falciparum in erythrocytes, SYBR Green DNA, 72 h
# Outline: as §1
# P94_40 = settings: P. falciparum in erythrocytes, SYBR Green DNA, 72 h
# Outline: as §1
# PAD = settings: P. falciparum in erythrocytes, SYBR Green DNA, 72 h
# Outline: as §1
# PC15 = settings: P. falciparum in erythrocytes, SYBR Green DNA, 72 h
# Outline: as §1
# PC26 = settings: P. falciparum in erythrocytes, SYBR Green DNA, 72 h
# Outline: as §1
# PC49 = settings: P. falciparum in erythrocytes, SYBR Green DNA, 72 h
# Outline: as §1
# SC27B = settings: P. falciparum in erythrocytes, SYBR Green DNA, 72 h
# Outline: as §1
# TAB109 = settings: P. falciparum in erythrocytes, SYBR Green DNA, 72 h
# Outline: as §1
# TAB113 = settings: P. falciparum in erythrocytes, SYBR Green DNA, 72 h
# Outline: as §1
# TAB165 = settings: P. falciparum in erythrocytes, SYBR Green DNA, 72 h
# Outline: as §1
# W2 = settings: P. falciparum in erythrocytes, SYBR Green DNA, 72 h
# Outline: as §1
# Potency means the concentration at half of the fitted maximal effect.
structure (smiles),measurement,setting,value
O=C(CCCCCCC(=O)Nc1ccccc1)NO,Potency,CP247,active: 141 nM
same,Potency,CP250,active: 708 nM
same,Potency,CP252,active: 562 nM
same,Potency,CP256,active: 562 nM
same,Potency,CP260,active: 501 nM
same,"activity, negative = inhibition",CP262,inactive: -25%
same,Potency,CP265,active: 891 nM
same,Potency,CP266,active: 1200 nM
same,Potency,CP268,active: 1350 nM
same,Potency,CP269,active: 757 nM
same,Potency,CP286,active: 1000 nM
same,Potency,CP291,active: 953 nM
same,Potency,CP297,active: 849 nM
same,Potency,CP305,active: 1200 nM
same,Potency,CP315,active: 953 nM
same,Potency,CP325,active: 1200 nM
same,Potency,CP329,active: 849 nM
same,Potency,DFO2036,active: 708 nM
same,Potency,DIV14,active: 478 nM
same,Potency,DIV17,active: 478 nM
same,Potency,DIV30,active: 1070 nM
same,Potency,Dd2,active: 224 nM
same,Potency,ECU,active: 794 nM
same,Potency,FAB9,active: 1410 nM
same,Potency,GB4,active: 757 nM
same,Potency,HB3,active: 708 nM
same,Potency,ICS,active: 447 nM
same,Potency,JCK,active: 3550 nM
same,Potency,N140,active: 562 nM
same,Potency,P93_24,active: 631 nM
same,Potency,P94_40,active: 631 nM
same,Potency,PAD,active: 708 nM
same,Potency,PC15,active: 1410 nM
same,Potency,PC26,active: 757 nM
same,Potency,PC49,active: 1000 nM
same,Potency,SC27B,active: 631 nM
same,Potency,TAB109,active: 447 nM
same,Potency,TAB113,active: 891 nM
same,Potency,TAB165,active: 501 nM
same,Potency,W2,active: 338 nM

# — PubChem BioAssay (NCATS)
